The supplement of paper PMC12823440, “Inhibitors supercharge kinase turnover through native proteolytic circuits” (Nature, 2025)
Counter-ions that a name gives are not always drawn. The list shows a part of the results. Hit calls seldom repeat between salt and free forms of one compound.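 Kinases, fused to nanoluciferase, were expressed in K562 cells; luminescence was measured every 4 h from 2 to 18 h as percent of control (DMSO = 100%, positive control = 0%). A time point is decreased if signal falls significantly (2 sigma). Hits were called by the authors by a rule that is not shown; the count of time points alone does not decide it.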

The chains behind the UniProt entries cited, without tags or fusion partners. Where a name states a change or a piece, a line headed by the entry shows the natural chain unless it says otherwise.
UniProt P00519, whole entry: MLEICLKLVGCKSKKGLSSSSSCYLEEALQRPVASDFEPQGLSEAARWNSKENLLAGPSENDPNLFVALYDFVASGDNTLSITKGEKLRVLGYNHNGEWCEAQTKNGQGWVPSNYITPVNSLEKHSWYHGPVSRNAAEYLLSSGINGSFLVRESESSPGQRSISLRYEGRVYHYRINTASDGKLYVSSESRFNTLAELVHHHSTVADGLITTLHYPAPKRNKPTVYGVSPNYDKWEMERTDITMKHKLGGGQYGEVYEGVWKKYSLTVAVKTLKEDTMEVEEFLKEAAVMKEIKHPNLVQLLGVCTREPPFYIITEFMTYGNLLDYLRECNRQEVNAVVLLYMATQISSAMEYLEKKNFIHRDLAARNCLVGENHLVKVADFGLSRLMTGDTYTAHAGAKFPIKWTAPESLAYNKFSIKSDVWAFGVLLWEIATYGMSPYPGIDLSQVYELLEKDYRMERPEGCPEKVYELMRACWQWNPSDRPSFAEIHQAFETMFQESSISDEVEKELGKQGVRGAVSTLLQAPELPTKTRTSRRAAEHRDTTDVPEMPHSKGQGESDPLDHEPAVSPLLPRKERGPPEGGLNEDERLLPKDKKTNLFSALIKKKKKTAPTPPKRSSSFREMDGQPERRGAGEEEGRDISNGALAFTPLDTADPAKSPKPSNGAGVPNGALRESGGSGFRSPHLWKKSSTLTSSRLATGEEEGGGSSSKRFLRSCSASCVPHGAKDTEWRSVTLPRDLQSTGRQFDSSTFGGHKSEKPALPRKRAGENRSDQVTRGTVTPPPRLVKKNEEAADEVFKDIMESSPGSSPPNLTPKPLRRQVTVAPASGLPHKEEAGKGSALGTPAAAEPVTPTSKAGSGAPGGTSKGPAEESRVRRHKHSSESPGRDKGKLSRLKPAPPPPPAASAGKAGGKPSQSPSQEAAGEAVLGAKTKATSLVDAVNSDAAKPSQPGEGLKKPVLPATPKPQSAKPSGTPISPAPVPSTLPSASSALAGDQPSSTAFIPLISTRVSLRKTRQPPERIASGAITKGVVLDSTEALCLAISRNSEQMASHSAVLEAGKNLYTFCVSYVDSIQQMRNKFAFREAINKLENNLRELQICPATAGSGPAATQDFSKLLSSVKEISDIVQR
UniProt P31749: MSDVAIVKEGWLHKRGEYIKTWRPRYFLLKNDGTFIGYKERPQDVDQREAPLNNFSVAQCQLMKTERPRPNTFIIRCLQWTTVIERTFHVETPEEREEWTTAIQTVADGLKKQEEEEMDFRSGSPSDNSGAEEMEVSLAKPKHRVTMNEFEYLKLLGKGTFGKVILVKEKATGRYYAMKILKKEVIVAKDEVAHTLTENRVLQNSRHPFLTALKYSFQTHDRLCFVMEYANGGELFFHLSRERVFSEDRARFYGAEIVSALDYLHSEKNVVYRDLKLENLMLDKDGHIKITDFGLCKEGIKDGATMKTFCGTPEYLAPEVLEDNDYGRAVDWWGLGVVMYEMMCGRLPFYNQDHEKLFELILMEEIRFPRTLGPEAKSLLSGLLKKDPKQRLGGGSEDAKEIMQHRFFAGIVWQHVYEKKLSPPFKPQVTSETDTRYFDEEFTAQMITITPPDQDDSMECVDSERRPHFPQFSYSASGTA
UniProt P10398: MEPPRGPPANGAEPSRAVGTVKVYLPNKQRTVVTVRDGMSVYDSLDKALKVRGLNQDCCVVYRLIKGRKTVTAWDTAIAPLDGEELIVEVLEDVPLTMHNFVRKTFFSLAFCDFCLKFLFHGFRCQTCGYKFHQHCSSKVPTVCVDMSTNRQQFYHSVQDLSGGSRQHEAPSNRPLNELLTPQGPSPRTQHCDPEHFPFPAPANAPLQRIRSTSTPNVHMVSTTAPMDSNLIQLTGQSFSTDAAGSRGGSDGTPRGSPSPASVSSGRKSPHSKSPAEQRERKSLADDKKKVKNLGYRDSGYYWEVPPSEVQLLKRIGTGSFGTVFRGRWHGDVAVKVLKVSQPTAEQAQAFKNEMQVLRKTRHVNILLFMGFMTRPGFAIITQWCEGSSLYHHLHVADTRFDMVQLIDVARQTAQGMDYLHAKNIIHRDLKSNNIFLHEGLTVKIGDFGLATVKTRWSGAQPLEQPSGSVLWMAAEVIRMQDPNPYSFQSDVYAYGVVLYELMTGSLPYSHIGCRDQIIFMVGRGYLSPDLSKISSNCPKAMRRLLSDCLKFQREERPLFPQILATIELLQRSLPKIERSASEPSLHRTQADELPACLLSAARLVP
UniProt O14965: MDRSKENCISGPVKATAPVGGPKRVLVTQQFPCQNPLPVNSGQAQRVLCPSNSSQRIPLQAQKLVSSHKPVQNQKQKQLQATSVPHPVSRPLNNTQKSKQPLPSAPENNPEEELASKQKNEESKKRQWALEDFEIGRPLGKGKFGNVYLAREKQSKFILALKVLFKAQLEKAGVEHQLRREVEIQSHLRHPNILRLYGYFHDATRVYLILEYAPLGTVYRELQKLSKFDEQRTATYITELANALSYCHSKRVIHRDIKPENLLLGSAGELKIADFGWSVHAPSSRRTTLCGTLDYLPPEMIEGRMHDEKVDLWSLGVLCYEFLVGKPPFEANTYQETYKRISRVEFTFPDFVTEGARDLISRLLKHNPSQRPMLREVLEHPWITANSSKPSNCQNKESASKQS
UniProt Q96GD4, whole entry: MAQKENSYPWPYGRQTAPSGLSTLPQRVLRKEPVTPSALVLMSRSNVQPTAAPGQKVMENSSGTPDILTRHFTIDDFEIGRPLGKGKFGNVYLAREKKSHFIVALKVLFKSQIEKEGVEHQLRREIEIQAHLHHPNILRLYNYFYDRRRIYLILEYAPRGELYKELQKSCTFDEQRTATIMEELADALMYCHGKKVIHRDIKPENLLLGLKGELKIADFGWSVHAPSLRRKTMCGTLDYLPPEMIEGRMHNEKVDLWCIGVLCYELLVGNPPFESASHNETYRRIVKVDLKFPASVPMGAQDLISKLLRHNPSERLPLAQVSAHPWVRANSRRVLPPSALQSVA
UniProt Q9UQB9: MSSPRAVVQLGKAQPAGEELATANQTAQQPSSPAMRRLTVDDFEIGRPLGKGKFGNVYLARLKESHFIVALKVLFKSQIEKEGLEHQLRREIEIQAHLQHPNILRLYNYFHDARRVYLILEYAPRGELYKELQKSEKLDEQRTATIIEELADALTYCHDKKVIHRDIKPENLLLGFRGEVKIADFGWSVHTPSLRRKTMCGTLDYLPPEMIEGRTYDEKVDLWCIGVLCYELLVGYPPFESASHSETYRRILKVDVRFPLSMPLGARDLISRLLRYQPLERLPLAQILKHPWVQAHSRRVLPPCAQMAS
UniProt P51451: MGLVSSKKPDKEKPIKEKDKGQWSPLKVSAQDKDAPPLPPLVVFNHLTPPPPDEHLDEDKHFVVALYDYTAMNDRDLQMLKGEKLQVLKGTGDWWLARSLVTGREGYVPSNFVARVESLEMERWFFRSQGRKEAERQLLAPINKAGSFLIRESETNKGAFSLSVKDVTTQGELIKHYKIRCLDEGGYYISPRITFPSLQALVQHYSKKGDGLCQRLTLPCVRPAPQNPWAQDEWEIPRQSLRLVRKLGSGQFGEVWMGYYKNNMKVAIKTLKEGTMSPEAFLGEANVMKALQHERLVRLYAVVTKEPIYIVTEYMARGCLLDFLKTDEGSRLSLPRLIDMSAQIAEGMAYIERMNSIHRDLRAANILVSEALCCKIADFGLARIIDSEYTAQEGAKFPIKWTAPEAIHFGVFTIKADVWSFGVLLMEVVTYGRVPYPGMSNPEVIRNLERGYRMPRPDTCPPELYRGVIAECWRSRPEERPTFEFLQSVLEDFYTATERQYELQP
UniProt P51813: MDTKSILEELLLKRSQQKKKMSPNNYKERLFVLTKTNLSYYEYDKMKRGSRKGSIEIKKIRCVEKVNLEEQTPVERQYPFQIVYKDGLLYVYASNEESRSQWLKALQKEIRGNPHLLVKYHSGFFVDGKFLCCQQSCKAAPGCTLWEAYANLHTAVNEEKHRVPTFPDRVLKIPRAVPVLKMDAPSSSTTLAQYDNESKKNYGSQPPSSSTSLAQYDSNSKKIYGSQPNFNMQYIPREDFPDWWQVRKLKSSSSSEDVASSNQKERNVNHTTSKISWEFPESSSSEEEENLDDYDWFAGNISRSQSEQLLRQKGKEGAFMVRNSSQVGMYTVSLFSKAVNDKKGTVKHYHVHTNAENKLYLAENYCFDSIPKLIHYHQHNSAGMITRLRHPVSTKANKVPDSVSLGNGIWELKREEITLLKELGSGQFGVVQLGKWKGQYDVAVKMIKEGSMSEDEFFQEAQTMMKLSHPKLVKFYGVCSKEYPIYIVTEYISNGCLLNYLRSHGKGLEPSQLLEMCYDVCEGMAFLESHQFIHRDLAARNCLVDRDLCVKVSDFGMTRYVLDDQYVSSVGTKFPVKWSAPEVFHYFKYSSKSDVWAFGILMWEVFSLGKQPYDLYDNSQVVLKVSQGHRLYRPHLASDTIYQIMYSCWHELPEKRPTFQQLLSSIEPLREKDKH
UniProt Q9UQM7, whole entry: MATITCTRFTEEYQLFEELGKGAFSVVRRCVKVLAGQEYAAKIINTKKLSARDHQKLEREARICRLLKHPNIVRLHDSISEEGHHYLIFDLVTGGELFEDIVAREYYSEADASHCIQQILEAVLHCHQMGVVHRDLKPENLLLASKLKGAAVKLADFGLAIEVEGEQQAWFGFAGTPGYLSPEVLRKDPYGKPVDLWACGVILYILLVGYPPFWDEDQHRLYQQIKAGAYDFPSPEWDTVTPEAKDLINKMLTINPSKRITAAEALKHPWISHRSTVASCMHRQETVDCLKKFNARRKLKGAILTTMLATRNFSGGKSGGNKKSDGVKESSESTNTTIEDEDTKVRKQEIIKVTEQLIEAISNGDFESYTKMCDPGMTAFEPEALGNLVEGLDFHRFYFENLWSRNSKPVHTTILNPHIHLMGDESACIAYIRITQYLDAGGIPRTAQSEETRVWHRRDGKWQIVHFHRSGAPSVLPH
UniProt Q13555: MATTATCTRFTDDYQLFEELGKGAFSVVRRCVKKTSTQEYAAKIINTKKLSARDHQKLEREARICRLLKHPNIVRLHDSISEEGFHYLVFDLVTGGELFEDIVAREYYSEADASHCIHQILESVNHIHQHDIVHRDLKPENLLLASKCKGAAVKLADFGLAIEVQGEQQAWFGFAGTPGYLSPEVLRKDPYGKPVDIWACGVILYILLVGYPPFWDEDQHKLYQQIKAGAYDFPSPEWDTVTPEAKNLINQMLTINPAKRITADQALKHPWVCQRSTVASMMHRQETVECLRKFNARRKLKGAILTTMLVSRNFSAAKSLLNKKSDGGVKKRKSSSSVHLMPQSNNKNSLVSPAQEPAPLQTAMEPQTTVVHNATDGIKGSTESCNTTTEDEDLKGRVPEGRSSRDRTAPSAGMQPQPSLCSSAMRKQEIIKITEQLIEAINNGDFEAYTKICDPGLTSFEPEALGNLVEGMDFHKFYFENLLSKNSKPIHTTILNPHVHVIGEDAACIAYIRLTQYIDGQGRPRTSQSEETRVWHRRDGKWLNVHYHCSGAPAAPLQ
UniProt Q15131: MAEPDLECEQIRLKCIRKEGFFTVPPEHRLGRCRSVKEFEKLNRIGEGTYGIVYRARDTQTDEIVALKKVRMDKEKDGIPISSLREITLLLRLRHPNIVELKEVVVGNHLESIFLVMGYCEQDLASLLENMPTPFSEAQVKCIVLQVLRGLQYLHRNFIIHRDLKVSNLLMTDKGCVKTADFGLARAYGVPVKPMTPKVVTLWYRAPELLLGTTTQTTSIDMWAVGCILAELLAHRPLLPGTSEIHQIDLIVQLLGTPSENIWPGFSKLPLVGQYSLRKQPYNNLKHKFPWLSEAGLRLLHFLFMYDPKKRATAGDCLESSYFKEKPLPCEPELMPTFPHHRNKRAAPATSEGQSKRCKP
UniProt Q00526: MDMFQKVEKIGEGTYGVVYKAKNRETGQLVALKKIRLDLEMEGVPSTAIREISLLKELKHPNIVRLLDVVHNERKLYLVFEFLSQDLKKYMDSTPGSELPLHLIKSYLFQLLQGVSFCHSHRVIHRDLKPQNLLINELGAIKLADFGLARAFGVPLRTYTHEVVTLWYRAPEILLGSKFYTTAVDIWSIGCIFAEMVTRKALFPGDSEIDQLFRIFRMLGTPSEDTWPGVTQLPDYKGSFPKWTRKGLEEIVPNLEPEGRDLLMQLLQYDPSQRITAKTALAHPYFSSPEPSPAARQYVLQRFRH
UniProt P11802: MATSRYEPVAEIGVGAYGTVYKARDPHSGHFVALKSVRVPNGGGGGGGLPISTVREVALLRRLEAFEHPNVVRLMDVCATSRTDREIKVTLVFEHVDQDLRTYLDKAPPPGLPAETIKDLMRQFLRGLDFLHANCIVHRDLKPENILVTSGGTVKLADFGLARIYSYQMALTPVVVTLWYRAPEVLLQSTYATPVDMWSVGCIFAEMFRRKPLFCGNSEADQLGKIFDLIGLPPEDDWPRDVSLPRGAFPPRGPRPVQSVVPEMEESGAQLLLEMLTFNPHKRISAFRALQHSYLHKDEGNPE

Tests used:
Experiment in all cases: kinase-Nluc reporter destabilization hit call (1 = scored as downregulated) (binary); higher = compound decreases kinase abundance
Conditions in all cases: K562; 2-18 h
ABL1 = ABL1 (UniProt P00519)
AKT1 = AKT1 (UniProt P31749)
ALK = ALK (UniProt Q9UM73)
ARAF = ARAF (UniProt P10398)
AURKA = AURKA (UniProt O14965)
AURKB = AURKB (UniProt Q96GD4)
AURKC = AURKC (UniProt Q9UQB9)
BLK = BLK (UniProt P51451)
BMX = BMX (UniProt P51813)
BRAF = BRAF (UniProt P15056)
BRAF_V600E = system: BRAF_V600E
BTK = BTK (UniProt Q06187)
CAMK2A = CAMK2A (UniProt Q9UQM7)
CAMK2G = CAMK2G (UniProt Q13555)
CDK10 = CDK10 (UniProt Q15131)
CDK2 = CDK2 (UniProt P24941)
CDK3 = CDK3 (UniProt Q00526)
CDK4 = CDK4 (UniProt P11802)
CDK5 = CDK5 (UniProt Q00535)
CDK6 = CDK6 (UniProt Q00534)

Measured: kinase-Nluc reporter destabilization hit call

C=C(CC[C@@H](C(=O)O)[C@H]1[C@H](O)C[C@@]2(C)C3=C(CC[C@]12C)[C@@]1(C)CC[C@H](OC(C)=O)C(C)(C)[C@@H]1CC3)C(C)C [Pachymic acid] (10 µM)
inactive: ABL1 = 0 | AKT1 = 0 | ALK 0 | ARAF 0 | AURKA 0 | AURKB 0 | AURKC 0 | BLK 0 | BMX 0 | BRAF 0 | BRAF_V600E 0 | BTK 0 | CAMK2A 0 | CAMK2G 0 | CDK10 = 0 | CDK2 = 0 | CDK3 = 0 | CDK4 = 0 | CDK5 = 0 | CDK6 = 0

C[C@@H](c1ccc(-c2ccccc2)c(F)c1)c1cc(NC(=N)N2CCOCC2)on1 [Rimacalib] (10 µM)
inactive: ABL1 = 0 | AKT1 = 0 | ALK 0 | ARAF 0 | AURKA 0 | AURKB 0 | AURKC 0 | BLK 0 | BMX 0 | BRAF 0 | BRAF_V600E 0 | BTK 0 | CAMK2A 0 | CAMK2G 0 | CDK10 = 0 | CDK2 = 0 | CDK3 = 0 | CDK4 = 0 | CDK5 = 0 | CDK6 = 0

Nc1ncnc2c1c(-c1cccc(OCc3ccccc3)c1)cn2C1CC(CN2CCC2)C1 (stereo not given) (2.5 µM)
inactive: ABL1 = 0 | AKT1 = 0 | ALK 0 | ARAF 0 | AURKA 0 | AURKB 0 | AURKC 0 | BLK 0 | BMX 0 | BRAF 0 | BRAF_V600E 0 | BTK 0 | CAMK2A 0 | CAMK2G 0 | CDK10 = 0 | CDK2 = 0 | CDK3 = 0 | CDK4 = 0 | CDK5 = 0 | CDK6 = 0

CC(C)(C)c1nc(-c2cccc(NS(=O)(=O)c3c(F)cccc3F)c2F)c(-c2ccnc(N)n2)s1 [Dabrafenib] (2.5 µM)
inactive: ABL1 = 0 | AKT1 = 0 | ALK 0 | ARAF 0 | AURKA 0 | AURKB 0 | AURKC 0 | BLK 0 | BMX 0 | BRAF 0 | BRAF_V600E 0 | BTK 0 | CAMK2A 0 | CAMK2G 0 | CDK10 = 0 | CDK2 = 0 | CDK3 = 0 | CDK4 = 0 | CDK5 = 0 | CDK6 = 0

O=c1cc(CN2CCOCC2)occ1OCCCCCSc1ccnc2cc(C(F)(F)F)ccc12 (10 µM)
inactive: ABL1 = 0 | AKT1 = 0 | ALK 0 | ARAF 0 | AURKA 0 | AURKB 0 | AURKC 0 | BLK 0 | BMX 0 | BRAF 0 | BRAF_V600E 0 | BTK 0 | CAMK2A 0 | CAMK2G 0 | CDK10 = 0 | CDK2 = 0 | CDK3 = 0 | CDK4 = 0 | CDK5 = 0 | CDK6 = 0

C=CC(=O)Nc1cc(Nc2ncc(Cl)c(-c3c[nH]c4ccccc34)n2)c(OC)cc1N(C)CCN(C)C [Mutant EGFR inhibitor] (2.5 µM)
inactive: ABL1 = 0 | AKT1 = 0 | ALK 0 | ARAF 0 | AURKA 0 | AURKB 0 | AURKC 0 | BLK 0 | BMX 0 | BRAF 0 | BRAF_V600E 0 | BTK 0 | CAMK2A 0 | CAMK2G 0 | CDK10 = 0 | CDK2 = 0 | CDK3 = 0 | CDK4 = 0 | CDK5 = 0 | CDK6 = 0

Cc1ccc(OCCSc2ncccn2)c(Br)c1 [ZLN024 (hydrochloride)] (10 µM)
inactive: ABL1 = 0 | AKT1 = 0 | ALK 0 | ARAF 0 | AURKA 0 | AURKB 0 | AURKC 0 | BLK 0 | BMX 0 | BRAF 0 | BRAF_V600E 0 | BTK 0 | CAMK2A 0 | CAMK2G 0 | CDK10 = 0 | CDK2 = 0 | CDK3 = 0 | CDK4 = 0 | CDK5 = 0 | CDK6 = 0

c1cncc(CN2CCC(n3ncc4c(N5CCOCC5)nc(-c5ccc6[nH]ccc6c5)nc43)CC2)c1 (10 µM)
active: ABL1 = 1
inactive: AKT1 = 0 | ALK 0 | ARAF 0 | AURKA 0 | AURKB 0 | AURKC 0 | BLK 0 | BMX 0 | BRAF 0 | BRAF_V600E 0 | BTK 0 | CAMK2A 0 | CAMK2G 0 | CDK10 = 0 | CDK2 = 0 | CDK3 = 0 | CDK4 = 0 | CDK5 = 0 | CDK6 = 0

O=C(NOCC(O)CO)c1cc(Br)c(F)c(F)c1Nc1ccc(I)cc1F (stereo not given) (2.5 µM)
inactive: ABL1 = 0 | AKT1 = 0 | ALK 0 | ARAF 0 | AURKA 0 | AURKB 0 | AURKC 0 | BLK 0 | BMX 0 | BRAF 0 | BRAF_V600E 0 | BTK 0 | CAMK2A 0 | CAMK2G 0 | CDK10 = 0 | CDK2 = 0 | CDK3 = 0 | CDK4 = 0 | CDK5 = 0 | CDK6 = 0

At a glance, two of the compounds above.
CC(C)(C)c1nc(-c2cccc(NS(=O)(=O)c3c(F)cccc3F)c2F)c(-c2ccnc(N)n2)s1 [Dabrafenib] (2.5 µM)
inactive: ABL1 = 0 | AKT1 = 0 | ALK 0 | ARAF 0 | AURKA 0 | AURKB 0 | AURKC 0 | BLK 0 | BMX 0 | BRAF 0 | BRAF_V600E 0 | BTK 0 | CAMK2A 0 | CAMK2G 0 | CDK10 = 0 | CDK2 = 0 | CDK3 = 0 | CDK4 = 0 | CDK5 = 0 | CDK6 = 0

O=c1cc(CN2CCOCC2)occ1OCCCCCSc1ccnc2cc(C(F)(F)F)ccc12 (10 µM)
inactive: ABL1 = 0 | AKT1 = 0 | ALK 0 | ARAF 0 | AURKA 0 | AURKB 0 | AURKC 0 | BLK 0 | BMX 0 | BRAF 0 | BRAF_V600E 0 | BTK 0 | CAMK2A 0 | CAMK2G 0 | CDK10 = 0 | CDK2 = 0 | CDK3 = 0 | CDK4 = 0 | CDK5 = 0 | CDK6 = 0

Next compounds

Cc1cc(CN2CCN(c3c(Br)cnc4nc(-c5ccc(N6CCN(C)CC6)cc5)[nH]c34)CC2)no1 (2.5 µM)
inactive: ABL1 = 0 | AKT1 = 0 | ALK 0 | ARAF 0 | AURKA 0 | AURKB 0 | AURKC 0 | BLK 0 | BMX 0 | BRAF 0 | BRAF_V600E 0 | BTK 0 | CAMK2A 0 | CAMK2G 0 | CDK10 = 0 | CDK2 = 0 | CDK3 = 0 | CDK4 = 0 | CDK5 = 0 | CDK6 = 0

CC(C)(O)CNc1ncc(-c2ccnc(Nc3ccnc(Cl)c3)n2)c(CC2CC2)n1 (2.5 µM)
inactive: ABL1 = 0 | AKT1 = 0 | ALK 0 | ARAF 0 | AURKA 0 | AURKB 0 | AURKC 0 | BLK 0 | BMX 0 | BRAF 0 | BRAF_V600E 0 | BTK 0 | CAMK2A 0 | CAMK2G 0 | CDK10 = 0 | CDK2 = 0 | CDK3 = 0 | CDK4 = 0 | CDK5 = 0 | CDK6 = 0

O=C(N/N=C/c1coc2ccccc2c1=O)c1cccnc1 (10 µM)
inactive: ABL1 = 0 | AKT1 = 0 | ALK 0 | ARAF 0 | AURKA 0 | AURKB 0 | AURKC 0 | BLK 0 | BMX 0 | BRAF 0 | BRAF_V600E 0 | BTK 0 | CAMK2A 0 | CAMK2G 0 | CDK10 = 0 | CDK2 = 0 | CDK3 = 0 | CDK4 = 0 | CDK5 = 0 | CDK6 = 0

Cc1[nH]c(/C=C2\C(=O)Nc3ccc(F)cc32)c(C)c1C(=O)N[C@H]1CCN(C(=O)N(C)C)C1 [Vorolanib] (10 µM)
inactive: ABL1 = 0 | AKT1 = 0 | ALK 0 | ARAF 0 | AURKA 0 | AURKB 0 | AURKC 0 | BLK 0 | BMX 0 | BRAF 0 | BRAF_V600E 0 | BTK 0 | CAMK2A 0 | CAMK2G 0 | CDK10 = 0 | CDK2 = 0 | CDK3 = 0 | CDK4 = 0 | CDK5 = 0 | CDK6 = 0

Cc1cc(=O)oc2c(C=O)c(O)ccc12 (10 µM)
inactive: ABL1 = 0 | AKT1 = 0 | ALK 0 | ARAF 0 | AURKA 0 | AURKB 0 | AURKC 0 | BLK 0 | BMX 0 | BRAF 0 | BRAF_V600E 0 | BTK 0 | CAMK2A 0 | CAMK2G 0 | CDK10 = 0 | CDK2 = 0 | CDK3 = 0 | CDK4 = 0 | CDK5 = 0 | CDK6 = 0

O=C(O)CCC(=O)Nc1ccc(Br)cn1 [Bikinin] (10 µM)
inactive: ABL1 = 0 | AKT1 = 0 | ALK 0 | ARAF 0 | AURKA 0 | AURKB 0 | AURKC 0 | BLK 0 | BMX 0 | BRAF 0 | BRAF_V600E 0 | BTK 0 | CAMK2A 0 | CAMK2G 0 | CDK10 = 0 | CDK2 = 0 | CDK3 = 0 | CDK4 = 0 | CDK5 = 0 | CDK6 = 0

Cc1ccccc1-c1c2nccc(-c3ccc(F)cc3F)c2cc[n+]1[O-] (10 µM)
inactive: ABL1 = 0 | AKT1 = 0 | ALK 0 | ARAF 0 | AURKA 0 | AURKB 0 | AURKC 0 | BLK 0 | BMX 0 | BRAF 0 | BRAF_V600E 0 | BTK 0 | CAMK2A 0 | CAMK2G 0 | CDK10 = 0 | CDK2 = 0 | CDK3 = 0 | CDK4 = 0 | CDK5 = 0 | CDK6 = 0

CCS(=O)(=O)Nc1ccc2[nH]c(O)c(C(=Nc3ccc(CN4CCCCC4)cc3)c3ccccc3)c2c1 [Hesperadin] (2.5 µM)
inactive: ABL1 = 0 | AKT1 = 0 | ALK 0 | ARAF 0 | AURKA 0 | AURKB 0 | AURKC 0 | BLK 0 | BMX 0 | BRAF 0 | BRAF_V600E 0 | BTK 0 | CAMK2A 0 | CAMK2G 0 | CDK10 = 0 | CDK2 = 0 | CDK3 = 0 | CDK4 = 0 | CDK5 = 0 | CDK6 = 0

Nc1ccc(-c2cnc(N)c(-c3ccc(Cl)cc3)c2)cn1 (10 µM)
inactive: ABL1 = 0 | AKT1 = 0 | ALK 0 | ARAF 0 | AURKA 0 | AURKB 0 | AURKC 0 | BLK 0 | BMX 0 | BRAF 0 | BRAF_V600E 0 | BTK 0 | CAMK2A 0 | CAMK2G 0 | CDK10 = 0 | CDK2 = 0 | CDK3 = 0 | CDK4 = 0 | CDK5 = 0 | CDK6 = 0
